# These are yes or no findings as the source states them, for the method shown. Binding seen in cells or lysates may run through a third protein. Binding calls can cover weak binding; strength is not graded here. Sequences can lack the tags named with a protein.
# B1: HA-Trl (protein, UniProt Q08605 1-582)
# chain: MSLPMNSLYSLTWGDYGTSLVSAIQLLRCHGDLVDCTLAAGGRSFPAHKIVLCAASPFLLDLLKNTPCKHPVVMLAGVNANDLEALLEFVYRGEVSVDHAQLPSLLQAAQCLNIQGLAPQTVTKDDYTTHSIQLQHMIPQHHDQDQLIATIATAPQQTVHAQVVEDIHHQGQILQATTQTNAAGQQQTIVTTDAAKHDQAVIQAFLPARKRKPRVKKMSPTAPKISKVEGMDTIMGTPTSSHGSGSVQQVLGENGAEGQLLSSTPIIKSEGQKVETIVTMDPNNMIPVTSANAATGEITPAQGATGSSGGNTSGVLSTPKAKRAKHPPGTEKPRSRSQSEQPATCPICYAVIRQSRNLRRHLELRHFAKPGVKKEKKTTSGKKSSSGSSGSGSGALSSSGSVPQVQTVQSLHTLQGVQVKKDPDAQQQQQQQQQQQQQQQQQAMTVSGATGGQVQQQVQQVQQQVQQQQQQQQQQQQQLQHHQIIDSSGNITTATTSAQAAAAAQQQAAGQQQQLVAQSDGSESGAPLSIAQVQTLQGHQIIGNLNQVNITDFQQQQPQQQQQQQQQQQQQQQQQQQTQQTL
# Target: GFP-Ubx N51A (Drosophila)
# Assay: co-IP; S2R+ Drosophila cells co-transfected; lysate in NP40 buffer (20 mM Tris pH7.5, 150 mM NaCl, 2 mM EDTA, 1% NP40); 1 to 1.5 mg of proteins incubated 3 hr with GFP-Trap beads; 3 washes; Western blot
binder,measurement,value
B1,binding,binds

# Source: PMC6513553
